The results in this text go back to patent US20210380703A1.

T1: His-tagged Mouse ACVR2B (mouse) (UniProt P27040)
T1 sequence (looked up): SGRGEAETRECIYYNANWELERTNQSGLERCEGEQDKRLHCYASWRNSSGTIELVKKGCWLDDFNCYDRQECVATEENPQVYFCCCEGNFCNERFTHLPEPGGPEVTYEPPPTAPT

T2: His-tagged Human ACVR2B (human) (UniProt Q13705)
T2 sequence (looked up): T1 sequence (looked up) with P101A

B1: 375_E10 (antibody, V domains shown)
VH: EVQLLESGGGLVQPGGSLRLSCAASGFTFSSYSMNWVRQAPGKGLEWVSGINYNGGYTSYADSVKGRFTISRDNSKNTLYLQMNSLRAEDTAVYYCARGANWHDTALDYWGQGTLVTVSS
VL: DIQMTQSPSSLSASVGDRVTITCRASQSILSYLNWYQQKPGKAPKLVIYAATSRASGVPSRFSGSGSGTDFTLTISSLQPEDFATYYCQQSYDNPLTFGGGTKVEIK
B2: 373_A10 (antibody, V domains shown)
VH: B1 VH with S33G, G55S, G99S
VL: B1 VL with N94L
B3: 369_C12 (antibody, V domains shown)
VH: B1 VH with S33G, S49A, G50N, T58K, S59G, N101T, A106H
VL: B1 VL with S31T, V47L, A55H, N94T
B4: 367_A02 (antibody, V domains shown)
VH: B1 VH with S30D, S33G, G50S, G55S, T58K, S59G, N101T, A106H
VL: B1 VL with L30I, V47L, A51V, N94T
B5: 376_H11 (antibody, V domains shown)
VH: B1 VH with S30D, G50N, S59G
VL: B1 VL with L30S, S31R, V47L, A51V, R54L, D93E, N94S
B6: 368_F03 (antibody, V domains shown)
VH: B1 VH with S30D, S49A, G55S, S59G, R98K, G99S
VL: B1 VL with L30I, A55H, N94S
B7: 371_E12 (antibody, V domains shown)
VH: B1 VH with S30D, G55S, T58K, N101T, A106H
VL: B1 VL with V47L, R54L, N94T
B8: 370_F12 (antibody, V domains shown)
VH: B1 VH with S31D, S49A, G50N, S59G, N101T, A106H
VL: B1 VL with V47L, T52S, R54L, A55Q, N94S
B9: 369_D02 (antibody, V domains shown)
VH: B1 VH with S31D, G50N, G55S, S59G, G99S
VL: B1 VL with A51V, N94T
B10: 369_H12 (antibody, V domains shown)
VH: B1 VH with S49A, T58K, N101T, A106H
VL: B1 VL with L30V, S31T, L33V, N94S
B11: 367_H06 (antibody, V domains shown)
VH: B1 VH with S33G, G50N, S59G, G99S, A106H
VL: B1 VL with L30I, S31T, V47L, N94T
B12: 369_H06 (antibody, V domains shown)
VH: B1 VH with S33G, S49A, G50N, T58K, G99S
VL: B1 VL with L30V, L33V, V47L, N94T
B13: 371_B01 (antibody, V domains shown)
VH: B1 VH with S30D, G50N, G55S, S59G, N101T, A106H
VL: B1 VL with L33V, V47L, R54L, N94L
B14: 374_A05 (antibody, V domains shown)
VH: B1 VH with S31D, S33G, S49A, G50N, T58K, S59G, N101T, A106H
VL: B1 VL with L30V, S31R, R54L, D93E, N94L
B15: 366_B12 (antibody, V domains shown)
VH: B1 VH with S49A, G55S, T58K, S59G, G99S
VL: B1 VL with S31T, L33V, V47L
B16: 369_F01 (antibody, V domains shown)
VH: B1 VH with S33G, T58K, G99S
VL: B1 VL with S31T, L33V, V47L, D93E, N94L
B17: 369_H08 (antibody, V domains shown)
VH: B1 VH with S49A, G55S, T58K, N101T, A106H
VL: B1 VL with L33V, R54L, D93E, N94S
B18: 374_G05 (antibody, V domains shown)
VH: B1 VH with G50N, G55S, T58K, S59G, N101T, A106H
VL: B1 VL with L30I, V47L, N94L
B19: 370_E04 (antibody, V domains shown)
VH: B1 VH with S49A, G50N, T58K, S59G, N101T, A106H
VL: B1 VL with S31T, V47L, A51V, R54L, A55H, D93E, N94T
B20: 367_H11 (antibody, V domains shown)
VH: B1 VH with S33G, S49A, T58K, S59G, G99S
VL: B1 VL with L30I, L33V, D93N, N94S
B21: 375_F02 (antibody, V domains shown)
VH: B1 VH with S49A, G50S, G55S, A106H
VL: B1 VL with V47L, N94S
B22: 372_B09 (antibody, V domains shown)
VH: B1 VH with G50S, G55S, N101T, A106H
VL: B1 VL with S31T, V47L, D93E, N94T
B23: 371_F09 (antibody, V domains shown)
VH: B1 VH with S49A, N101T, A106H
VL: B1 VL with S31T, V47L
B24: 365_E05 (antibody, V domains shown)
VH: B1 VH with S33G, N35H, S49A, G99S
VL: B1 VL with L30V, L33V, V47L, R54L
B25: 370_D03 (antibody, V domains shown)
VH: B1 VH with S49A, G50S, N101T, A106H
VL: B1 VL with L30I, S31T, V47L, N94L
B26: 368_G03 (antibody, V domains shown)
VH: B1 VH with G55S, N101T
VL: B1 VL with N94T
B27: 370_C07 (antibody, V domains shown)
VH: B1 VH with S49A, G50N, T58K, N101T, A106H
VL: B1 VL with V47L, A55H, D93E, N94S
B28: 365_E07 (antibody, V domains shown)
VH: B1 VH with S30D, S33G, N35H, G55S, R98K, G99S, A106H
VL: B1 VL with V47L
B29: 370_A12 (antibody, V domains shown)
VH: B1 VH with S33G, S49A, G99S
VL: B1 VL with S31T, V47L, R54L, N94S
B30: 373_F07 (antibody, V domains shown)
VH: B1 VH with G55S, T58K, N101T, A106H
VL: B1 VL with V47L, R54L, D93E, N94T
B31: 375_H05 (antibody, V domains shown)
VH: B1 VH with G50N, S59G
VL: B1 VL with L33V, V47L, N94T
B32: 376_F06 (antibody, V domains shown)
VH: B1 VH with S33G, S59G, A106H
VL: B1 VL with S31T, L33V, D93E, N94T

Changes are numbered by the printed parent chain. Results are given in words; binding and its absence hold for the method and conditions named. Tags and fused reporters may be left off the sequences shown.

The first test concerns the target T1, His-tagged Mouse ACVR2B (mouse). In words: ELISA, coated antigen, 10 pt. (In an ELISA, binding on a coated surface is turned into a signal by an enzyme label.)
As for B1, the binding result is recorded as “no binding (tested: 1 uM)”. On the same count and under the same terms, then B2, with “no binding (tested: 1 uM top)”; and B3, with “no binding (tested: 1 uM)”; and B4, with “no binding (tested: 1 uM)”. Consider B5, for which the binding entry was “no binding (tested: 1 uM)”. As to B6, the binding result was “no binding (tested: 1 uM top)”.

Regarding B7, the binding entry was “no binding (tested: 1 uM)”.

B8: the binding result is “no binding (tested: 1 uM)”. Consider B9, for which the binding result is reported as “no binding (tested: 1 uM top)”. Still for that read-out and setting: then B10, with “no binding (tested: 1 uM)”; and B11, with “no binding (tested: 1 uM top)”; and B12, with “no binding (tested: 1 uM top)”.

In the case of B13, the binding result was “no binding (tested: 1 uM)”. Same read-out and setting: then B14, with “no binding (tested: 1 uM top)”. Still for that read-out and setting: then B15, with “no binding (tested: 1 uM top)”; and B16, with “no binding (tested: 1 uM top)”; and B17, with “no binding (tested: 1 uM)”. On the same count and under the same terms, the entry for B18 is “no binding (tested: 1 uM top)”; for B19 it is “no binding (tested: 1 uM)”. B20: the binding entry was “no binding (tested: 1 uM top)”. Same read-out and setting: the entry for B21 is “no binding (tested: 1 uM)”. Still for that read-out and setting: the entry for B22 is “no binding (tested: 1 uM)”.

Turning to B23, the binding result was “no binding (tested: 1 uM)”.

For B24, the binding entry is “no binding (tested: 1 uM top)”. Consider B25, for which the binding result is “no binding (tested: 1 uM)”.

As to B26, the binding result was “no binding (tested: 1 uM)”. Same read-out and setting: the entry for B27 is “no binding (tested: 1 uM)”; for B28 it is “no binding (tested: 1 uM top)”; for B29 it is “no binding (tested: 1 uM top)”. Same read-out and setting: then B30, with “no binding (tested: 1 uM)”. B31: the binding entry was “no binding (tested: 1 uM)”.

Take B32: the binding result is listed as “no binding (tested: 1 uM)”.

The target in the next test is T2, His-tagged Human ACVR2B (human). In words: ELISA, coated antigen, 10 pt.
With B1, the binding result is “no binding (tested: 1 uM)”. B3: the binding result is on record as “no binding (tested: 1 uM)”. Still for that read-out and setting: then B4, with “no binding (tested: 1 uM)”; and B5, with “no binding (tested: 1 uM)”; and B6, with “no binding (tested: 1 uM top)”. Same read-out and setting: the entry for B7 is “no binding (tested: 1 uM)”; for B8 it is “no binding (tested: 1 uM)”; for B9 it is “no binding (tested: 1 uM top)”. Same read-out and setting: the entry for B10 is “no binding (tested: 1 uM)”; for B11 it is “no binding (tested: 1 uM top)”; for B12 it is “no binding (tested: 1 uM top)”.

Take B13: the binding result is given as “no binding (tested: 1 uM)”. The same measure, in the same setting: then B14, with “no binding (tested: 1 uM top)”; and B15, with “no binding (tested: 1 uM top)”; and B16, with “no binding (tested: 1 uM top)”. For the molecule B17, the binding entry is given as “no binding (tested: 1 uM)”. Still for that read-out and setting: the entry for B18 is “no binding (tested: 1 uM top)”; for B19 it is “no binding (tested: 1 uM)”.

With B20, the binding result is reported as “no binding (tested: 1 uM top)”.

B21: the binding result is given as “no binding (tested: 1 uM)”. B22: the binding entry is “no binding (tested: 1 uM)”. The same measure, in the same setting: then B23, with “no binding (tested: 1 uM)”; and B24, with “no binding (tested: 1 uM top)”; and B25, with “no binding (tested: 1 uM)”. Still for that read-out and setting: then B26, with “no binding (tested: 1 uM)”; and B27, with “no binding (tested: 1 uM)”; and B28, with “no binding (tested: 1 uM top)”. On the same count and under the same terms, the entry for B29 is “no binding (tested: 1 uM top)”; for B30 it is “no binding (tested: 1 uM)”. As for B31, the binding entry is on record as “no binding (tested: 1 uM)”. Same read-out and setting: the entry for B32 is “no binding (tested: 1 uM)”.
